Measured values from the supplement of paper PMC4604168 (melanoma cell lines).
This is one part of the list. Repeats are few or missing, and single values can be far off.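 The apoptosis fraction was the count of cleaved-PARP antibody-stained nuclei relative to all DNA-stained nuclei, imaged in 1,536-well plates. Screening doses were set so most cells survived, and baseline and induced cleaved-PARP levels vary greatly across cell lines.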

Tests used:
Assay in all cases: cleaved PARP positive nuclei fraction relative to DMSO control; melanoma cells; higher = more apoptosis
Conditions in all cases: library dose: low library concentration; 72 h
MZ2-MEL = tested on: MZ2-MEL
MeWo = tested on: MeWo
RPMI7951 = tested on: RPMI7951
RVH-421 = tested on: RVH-421
SkMel28 = tested on: SkMel28
SkMel2 = tested on: SkMel2
SkMel30 = tested on: SkMel30
UACC62 = tested on: UACC62
WM115 = tested on: WM115
WM1716 = tested on: WM1716
WM1745 = tested on: WM1745
WM3526 = tested on: WM3526
WM3619 = tested on: WM3619
WM451Lu = tested on: WM451Lu
SkMel5 = tested on: SkMel5
UACC257 = tested on: UACC257

Row | Structure (SMILES) | cleaved PARP positive nuclei fraction (MZ2-MEL) [%] | cleaved PARP positive nuclei fraction (MeWo) [%] | cleaved PARP positive nuclei fraction (RPMI7951) [%] | cleaved PARP positive nuclei fraction (RVH-421) [%] | cleaved PARP positive nuclei fraction (SkMel28) [%] | cleaved PARP positive nuclei fraction (SkMel2) [%] | cleaved PARP positive nuclei fraction (SkMel30) [%] | cleaved PARP positive nuclei fraction (UACC62) [%] | cleaved PARP positive nuclei fraction (WM115) [%] | cleaved PARP positive nuclei fraction (WM1716) [%] | cleaved PARP positive nuclei fraction (WM1745) [%] | cleaved PARP positive nuclei fraction (WM3526) [%] | cleaved PARP positive nuclei fraction (WM3619) [%] | cleaved PARP positive nuclei fraction (WM451Lu) [%] | cleaved PARP positive nuclei fraction (SkMel5) [%] | cleaved PARP positive nuclei fraction (UACC257) [%]
1 | NC1(c2ccc(-c3nc4ccn5c(=O)[nH]nc5c4cc3-c3ccccc3)cc2)CCC1 + CCCS(=O)(=O)Nc1ccc(F)c(C(=O)c2c[nH]c3ncc(Cl)cc23)c1F [PLX4720] (first compound 0.4 µM, partner dose 0.08 µM) | 69.8 | 150 | 112 | 326 | 316 | 69.2 | 167 | 416 | 362 | 75.5 | 102 | 134 | 162 | 359 | – | –
2 | Cn1cnc2c(F)c(Nc3ccc(Br)cc3Cl)c(C(=O)NOCCO)cc21 [selumetinib] + N#Cc1c(O)c2c(-c3ccc(-c4ccccc4O)cc3)csc2[nH]c1=O [A769662] (first compound 0.015 µM, partner dose 2 µM) | 282 | 173 | 59.4 | 67.2 | 70.7 | 136 | 234 | 109 | 114 | 47.1 | 89.9 | 89.2 | 108 | 131 | 60.7 | 36.7
3 | C[C@]1(O)C[C@@H](c2nc(-c3ccc4ccc(-c5ccccc5)nc4c3)c3c(N)nccn32)C1 + O=C(O)c1ccc2c(c1)nc(Nc1cccc(Cl)c1)c1ccncc12 [CX4945] (first compound 0.4 µM, partner dose 0.4 µM) | 175 | 147 | 28.8 | 61 | 71.3 | 85 | 46.9 | 175 | 358 | 249 | 110 | 103 | 92.3 | 101 | – | –
4 | CC1(C)CCC(c2ccc(Cl)cc2)=C(CN2CCN(c3ccc(C(=O)NS(=O)(=O)c4ccc(N[C@H](CCN5CCOCC5)CSc5ccccc5)c(S(=O)(=O)C(F)(F)F)c4)cc3)CC2)C1 + C[C@]1(O)C[C@@H](c2nc(-c3ccc4ccc(-c5ccccc5)nc4c3)c3c(N)nccn32)C1 [OSI906] (first compound 0.4 µM, partner dose 0.4 µM) | 270 | 527 | 136 | 179 | 77.6 | 139 | 95 | 204 | 365 | 80.7 | 1440 | 30.3 | 103 | 86 | – | –
5 | CS(=O)(=O)c1ccc(C(=O)Nc2ccc(Cl)c(-c3ccccn3)c2)c(Cl)c1 [vismodegib] + C=C(c1ccc(C(=O)O)cc1)c1cc2c(cc1C)C(C)(C)CCC2(C)C [Bexarotene] (first compound 1 µM, partner dose 2 µM) | 31.6 | 56.5 | 76.7 | 134 | 101 | 139 | 121 | 122 | 38.5 | 60.3 | 92 | 45.9 | 97 | 54.6 | – | –
6 | NC(=O)c1ccc(N(C(N)=O)c2c(F)cccc2F)nc1-c1ccc(F)cc1F + CCN(CC)CCCCNc1ncc2cc(-c3cc(OC)cc(OC)c3)c(NC(=O)NC(C)(C)C)nc2n1 [PD173074] (first compound 0.4 µM, partner dose 0.1 µM) | 77.4 | 87.4 | 71.6 | 118 | 66.8 | 66.8 | 36.6 | 67.3 | 56.8 | 85.4 | 95.9 | 135 | 67.3 | 71.2 | 67.5 | 37.4
7 | C[C@]1(O)C[C@@H](c2nc(-c3ccc4ccc(-c5ccccc5)nc4c3)c3c(N)nccn32)C1 + Nc1ccn([C@@H]2O[C@H](CO)[C@@H](O)C2(F)F)c(=O)n1 [gemcitabine] (first compound 0.4 µM, partner dose 0.0004 µM) | 193 | 134 | 43.7 | 270 | 320 | 42.3 | 68 | 119 | 82.4 | 306 | 135 | 97.2 | 121 | 343 | – | –
8 | Cn1cnc2c(F)c(Nc3ccc(Br)cc3Cl)c(C(=O)NOCCO)cc21 [selumetinib] + Cn1cncc1[C@@](N)(c1ccc(Cl)cc1)c1ccc2c(c1)c(-c1cccc(Cl)c1)cc(=O)n2C [tipifarnib] (first compound 0.015 µM, partner dose 0.01 µM) | 501 | 37.8 | 78.4 | 106 | 201 | 175 | 108 | 343 | 223 | 114 | 175 | 79.5 | 143 | 106 | 335 | 426
9 | C[C@@H](N)c1ccc(C(=O)Nc2ccnc3[nH]ccc23)cc1 + Nc1ccn([C@@H]2O[C@H](CO)[C@@H](O)C2(F)F)c(=O)n1 [gemcitabine] (first compound 0.4 µM, partner dose 0.0004 µM) | 151 | 257 | 102 | 181 | 117 | 133 | 70.8 | 38.5 | 73.3 | 48.1 | 131 | 70.7 | 126 | 74.2 | – | –
10 | CS(=O)(=O)c1ccc(C(=O)Nc2ccc(Cl)c(-c3ccccn3)c2)c(Cl)c1 [vismodegib] + C[C@@H](Oc1cc(-c2cnn(C3CCNCC3)c2)cnc1N)c1c(Cl)ccc(F)c1Cl [Crizotinib] (first compound 1 µM, partner dose 0.2 µM) | 67.8 | 149 | 127 | 59.3 | 93.6 | 108 | 50.2 | 62.1 | 108 | 186 | 86.9 | 36.7 | 87.2 | 95.8 | – | –
11 | COc1ccc(C2=N[C@@H](c3ccc(Cl)cc3)[C@@H](c3ccc(Cl)cc3)N2C(=O)N2CCNC(=O)C2)c(OC(C)C)c1 [Nutlin-3] + C[C@@H](Oc1cc(-c2cnn(C3CCNCC3)c2)cnc1N)c1c(Cl)ccc(F)c1Cl [Crizotinib] (first compound 0.1 µM, partner dose 0.2 µM) | 57.8 | 80.2 | 21.4 | 117 | 21.5 | 118 | 70.3 | 196 | 58.9 | 20 | 109 | 101 | 93.9 | 166 | – | –
12 | CCN(CC)CCNC(=O)c1c(C)[nH]c(/C=C2\C(=O)Nc3ccc(F)cc32)c1C [sunitinib] + CCN(CC)CCCCNc1ncc2cc(-c3cc(OC)cc(OC)c3)c(NC(=O)NC(C)(C)C)nc2n1 [PD173074] (first compound 0.4 µM, partner dose 0.1 µM) | 99 | 126 | 42 | 205 | 177 | 148 | 132 | 272 | 224 | 80.6 | 110 | 107 | 94.7 | 158 | 65.1 | 134
13 | COc1ccc(C2=N[C@@H](c3ccc(Cl)cc3)[C@@H](c3ccc(Cl)cc3)N2C(=O)N2CCNC(=O)C2)c(OC(C)C)c1 [Nutlin-3] + CCCS(=O)(=O)Nc1ccc(F)c(C(=O)c2c[nH]c3ncc(Cl)cc23)c1F [PLX4720] (first compound 0.1 µM, partner dose 0.08 µM) | 165 | 132 | 88.1 | 216 | 162 | 179 | 65.9 | 133 | 104 | 31.6 | 80.2 | 109 | 77.3 | 27.3 | – | –
14 | CC1(C)CCC(c2ccc(Cl)cc2)=C(CN2CCN(c3ccc(C(=O)NS(=O)(=O)c4ccc(N[C@H](CCN5CCOCC5)CSc5ccccc5)c(S(=O)(=O)C(F)(F)F)c4)cc3)CC2)C1 + C[C@@H](Oc1cc(-c2cnn(C3CCNCC3)c2)cnc1N)c1c(Cl)ccc(F)c1Cl [Crizotinib] (first compound 0.4 µM, partner dose 0.2 µM) | 386 | 637 | 147 | 227 | 33.2 | 110 | 297 | 141 | 493 | 37.9 | 996 | 52.4 | 86.4 | 97.6 | – | –
15 | NC(=O)c1ccc(N(C(N)=O)c2c(F)cccc2F)nc1-c1ccc(F)cc1F + COc1ccc(C2=N[C@@H](c3ccc(Cl)cc3)[C@@H](c3ccc(Cl)cc3)N2C(=O)N2CCNC(=O)C2)c(OC(C)C)c1 [Nutlin-3] (first compound 0.4 µM, partner dose 0.1 µM) | 29.9 | 208 | 33.3 | 67 | 20.9 | 190 | 81.1 | 158 | 105 | 76.8 | 104 | 43.9 | 86.3 | 92.1 | – | –
16 | CCCCCCCCc1ccc(CCC(N)(CO)CO)cc1 [fingolimod] + COc1ccc(Cl)c(Nc2nc3ccccc3nc2NS(=O)(=O)c2cccc(NC(=O)C(C)(C)N)c2)c1 [XL147] (first compound 2 µM, partner dose 0.8 µM) | 55.3 | 145 | 141 | 120 | 55.6 | 67.1 | 120 | 399 | 67.9 | 48.2 | 119 | 155 | 76 | 42.9 | – | –
17 | CC(=O)O[C@@]12CO[C@@H]1C[C@H](O)[C@@]1(C)C(=O)[C@H](O)C3=C(C)[C@@H](OC(=O)[C@H](O)[C@@H](NC(=O)OC(C)(C)C)c4ccccc4)C[C@@](O)([C@@H](OC(=O)c4ccccc4)[C@H]21)C3(C)C [Docetaxel] + Nc1ncn([C@H]2C[C@H](O)[C@@H](CO)O2)c(=O)n1 [decitabine] (first compound 0.0001 µM, partner dose 0.1 µM) | 645 | 833 | 103 | 109 | 222 | 896 | 290 | 471 | 469 | 496 | 153 | 84.5 | 131 | 142 | – | –
18 | Cn1cnc2c(F)c(Nc3ccc(Br)cc3Cl)c(C(=O)NOCCO)cc21 [selumetinib] + Nc1ccn([C@@H]2O[C@H](CO)[C@@H](O)C2(F)F)c(=O)n1 [gemcitabine] (first compound 0.015 µM, partner dose 0.0004 µM) | 53 | 103 | 109 | 215 | 77 | 133 | 120 | 90.1 | 113 | 117 | 119 | 82.5 | 123 | 137 | – | –
19 | NC(=O)c1ccc(N(C(N)=O)c2c(F)cccc2F)nc1-c1ccc(F)cc1F + CCN(CC)CCNC(=O)c1c(C)[nH]c(/C=C2\C(=O)Nc3ccc(F)cc32)c1C [sunitinib] (first compound 0.4 µM, partner dose 0.4 µM) | 83.2 | 23.7 | 77.8 | 187 | 38.9 | 32.7 | 91.3 | 89.3 | 93.5 | 2.64 | 117 | 57.2 | 92.6 | 51.8 | – | –

Full records as entered above. Order of values: cleaved PARP positive nuclei fraction (MZ2-MEL) [%] | cleaved PARP positive nuclei fraction (MeWo) [%] | cleaved PARP positive nuclei fraction (RPMI7951) [%] | cleaved PARP positive nuclei fraction (RVH-421) [%] | cleaved PARP positive nuclei fraction (SkMel28) [%] | cleaved PARP positive nuclei fraction (SkMel2) [%] | cleaved PARP positive nuclei fraction (SkMel30) [%] | cleaved PARP positive nuclei fraction (UACC62) [%] | cleaved PARP positive nuclei fraction (WM115) [%] | cleaved PARP positive nuclei fraction (WM1716) [%] | cleaved PARP positive nuclei fraction (WM1745) [%] | cleaved PARP positive nuclei fraction (WM3526) [%] | cleaved PARP positive nuclei fraction (WM3619) [%] | cleaved PARP positive nuclei fraction (WM451Lu) [%] | cleaved PARP positive nuclei fraction (SkMel5) [%] | cleaved PARP positive nuclei fraction (UACC257) [%]
CCN(CC)CCNC(=O)c1c(C)[nH]c(/C=C2\C(=O)Nc3ccc(F)cc32)c1C [sunitinib] + CCN(CC)CCCCNc1ncc2cc(-c3cc(OC)cc(OC)c3)c(NC(=O)NC(C)(C)C)nc2n1 [PD173074] (first compound 0.4 µM, partner dose 0.1 µM) as listed: 99 | 126 | 42 | 205 | 177 | 148 | 132 | 272 | 224 | 80.6 | 110 | 107 | 94.7 | 158 | 65.1 | 134
C[C@]1(O)C[C@@H](c2nc(-c3ccc4ccc(-c5ccccc5)nc4c3)c3c(N)nccn32)C1 + O=C(O)c1ccc2c(c1)nc(Nc1cccc(Cl)c1)c1ccncc12 [CX4945] (first compound 0.4 µM, partner dose 0.4 µM) as listed: 175 | 147 | 28.8 | 61 | 71.3 | 85 | 46.9 | 175 | 358 | 249 | 110 | 103 | 92.3 | 101 | – | –
